The list shows a part of the results. Small differences around the control level are noise.
These molecules were tested on ppGalNAc-T3 sensor (assay: T3 sensor activation Q score (MG/GFP ratio z-score vs DMSO controls) (SD units); higher = more sensor activation (inhibition of ppGalNAc-T3 glycosylation)). Details: HEK293 sensor cells; 10 µM; 6 h.
Method: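 Cells were treated with compound at 10 uM for 6 h, then MG/GFP ratio was read by flow cytometry (10,000 cells per well, duplicate wells). Q = (R - R_neg)/SD_neg relative to DMSO vehicle controls; the signal rises when the glycosyltransferase is inhibited.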

SMILES | T3 sensor activation Q score
NC(=O)CSc1nc2ccccc2[nH]1 | -0.995
COc1ccc(C(=O)NCCSC2CCCCC2)cc1 | -0.625
O=C(NCc1cccnc1)Nc1cccc(Cl)c1 | 0.135
Nc1nc(-c2ccco2)nc(-c2ccco2)n1 | 0.55
CCN1CCN(Cc2coc3ccccc3c2=O)CC1 | -0.05
c1ccc2c(c1)nnn1c3ccccc3nc21 | -0.415
COc1ccc(S(=O)(=O)Nc2ccc3oc(C)c(C(C)=O)c3c2)cc1 | -0.405
CCOc1ccc2nc(NC(=O)c3ccc([N+](=O)[O-])c(C)c3)sc2c1 | -0.75
c1ccc2c3c([nH]c2c1)CN(Cc1ccc2c(c1)OCO2)CC3 | 0.27
Clc1ccc(CN2CCOCC2)cc1Cl | -0.085
Cc1ccc(S(=O)(=O)NC(C)C)cc1[N+](=O)[O-] | -0.59
CCN(CC)C(=O)C1CCCN(Cc2ccc(C)cc2)C1 (stereo not given) | -0.205
CCc1ccc(OCC(O)CN2CCCC2)cc1 (stereo not given) | -0.03
Cc1ccc(O)c(C(=O)CC(=O)c2cccc(F)c2)c1 | -1.05
O=C(NN1C(=O)c2ccccc2C1=O)c1cccc(Br)c1 | -0.025
C=CCOc1cc(C)nc(-c2ccccc2O)n1 | -0.355
O=[N+]([O-])c1ccccc1CN1CCN(C/C=C/c2ccccc2)CC1 | 0.48
O=C(NCc1ccc(Cl)cc1)c1cccnc1 | 0.405
CC(=O)Nc1ccc(S(=O)(=O)N2CCCCCC2)cc1 | 0.145
CCn1c(C)nc2cc(Cl)ccc21 | -0.1

Reformatted with each value named: part of the list above.
COc1ccc(C(=O)NCCSC2CCCCC2)cc1
  T3 sensor activation Q score: -0.625
CCn1c(C)nc2cc(Cl)ccc21
  T3 sensor activation Q score: -0.1

Following part.

SMILES | T3 sensor activation Q score
O=C(O)CCC(=O)Nc1ccc(Br)c(Cl)c1 | -0.045
Fc1cccc(CN2CCN(c3ccccn3)CC2)c1 | -0.155
CCCCOc1ccc(C2(C(=O)O)CCCC2)cc1 | 0.6
Nc1ccc(C(=O)c2ccccc2)cc1[N+](=O)[O-] | 0.06
O=C(CCSc1ccccc1)Nc1cccc(F)c1 | 0.575
CCN(CCN(C)C)Cc1cccc(Br)c1 | 0.2
COc1cc(CN2CCCN(C)CC2)c([N+](=O)[O-])cc1OC | 0.6
CCN(CCN(C)C)Cc1ccc([N+](=O)[O-])cc1 | 0.175
CC(C)N(C(=O)Nc1cccc(Cl)c1)C(C)C | -0.085
CCOc1ccccc1N1CCN(Cc2ccc(N(C)C)cc2)CC1 | 0.54
O=C(Nc1ccc2c(c1)S(=O)(=O)c1cc(NC(=O)c3cccs3)ccc1-2)c1cccs1 | -0.255
NNc1ncnc2sc3c(c12)CCC3 | 1.1
CCN(CCN(C)C)Cc1cccc(F)c1 | 0.725
CN1CCN(S(=O)(=O)c2ccccc2)CC1 | 0.535
Cc1ccc2nc(-c3ccc(Cl)cc3)cn2c1 | 0.005
COc1cc(C(=O)N2CCN(C(=O)c3ccco3)CC2)cc(OC)c1OC | -0.67
CC(C)Cc1ccc(C(C)C(=O)NN)cc1 (stereo not given) | 2.3
CC(=O)C1=C(O)C(=O)N(C)C1c1ccc(Cl)cc1 (stereo not given) | 0.43
O=C(O)c1ccccc1C(=O)c1ccc(F)c(F)c1 | -0.465
Cc1ccc(CN2CCN(C(=O)c3ccccc3F)CC2)cc1 | -0.835
